Publication PMC6180102
Results are given in words; binding and its absence hold for the method and conditions named. Some binding calls cover weakened binding; strength is not graded here.

Biological target: T1, Human TRPML1 (transient receptor potential mucolipin 1) (human), Q9GZU1
T1 chain: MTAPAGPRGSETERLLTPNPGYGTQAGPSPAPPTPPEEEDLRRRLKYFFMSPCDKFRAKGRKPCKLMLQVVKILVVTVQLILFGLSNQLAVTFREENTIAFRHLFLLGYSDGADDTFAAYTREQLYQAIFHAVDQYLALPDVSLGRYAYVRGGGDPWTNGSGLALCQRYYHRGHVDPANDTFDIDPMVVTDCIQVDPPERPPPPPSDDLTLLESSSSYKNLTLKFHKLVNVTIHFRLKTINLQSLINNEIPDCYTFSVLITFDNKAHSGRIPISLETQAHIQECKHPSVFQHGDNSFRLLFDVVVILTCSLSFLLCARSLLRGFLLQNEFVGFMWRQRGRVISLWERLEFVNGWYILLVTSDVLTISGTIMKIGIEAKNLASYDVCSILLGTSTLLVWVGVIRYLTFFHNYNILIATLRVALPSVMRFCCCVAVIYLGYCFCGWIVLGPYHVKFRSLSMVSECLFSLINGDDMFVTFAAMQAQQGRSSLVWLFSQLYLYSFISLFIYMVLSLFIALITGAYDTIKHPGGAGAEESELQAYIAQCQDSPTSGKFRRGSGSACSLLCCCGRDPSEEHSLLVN
Experiment: cryo-EM structure; human TRPML1 in 20 mM sodium acetate pH 5.0, 150 mM NaCl, 0.06% digitonin, incubated with 0.2 mM PtdIns(3,5)P2, 0.2 mM PtdIns(4,5)P2, or 0.2 mM PtdIns(3,5)P2 plus 0.3 mM ML-SA1; 3.5-3.7 A; both purified
Conditions: remark: other sources report otherwise

B1: Human TRPML1 (transient receptor potential mucolipin 1), Q9GZU1 1-580 (protein)
chain: T1 chain
- binding: binds
